Laboratory results: PubChem BioAssay AID1224830 (NIAID, 2016)
In all, the deposit lists about 18,000 reagents; shown is an unselected part. About 2,900 of all reagents (16%) count as active. 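Calls are made per well; low scores hint the gene aids the LPS response, high scores that it dampens it.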 Entries without a mark were called inactive. Repeated entries: four replicate wells of each siRNA pool.

Test: 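Genes whose knock-down alters the TNF-alpha reporter response to LPS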 (primary screen)
Cells: human THP-1 monocytic leukaemia cells, TNF dual-luciferase reporter clone, PMA-differentiated to macrophage-like cells
Reagent: siRNA pool against human genes, 50 nM
Time to read-out: LPS for 4 h, given about 3 days after siRNA transfection
Challenge: bacterial LPS (TLR4 ligand), 10 ng/ml
Measured: 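TNF firefly reporter luminescence divided by renilla, normalised to the plate median, then turned into a robust z-score for each replicate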
Scale: TNF reporter robust z-score: higher = stronger TNF reporter response to LPS
Hit rule: 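a well is active when its z-score exceeds 2.8 or falls below -1.5; control wells carry no call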

After knock-down of THOC1 (THO complex subunit 1), the screen gave TNF reporter robust z-score -1.74 (active).
After knock-down of THOC1 (THO complex subunit 1) the results were TNF reporter robust z-score -0.74.
Depletion of THOC1 (THO complex subunit 1) gave: TNF reporter robust z-score -0.96.
Against THOC1 (THO complex subunit 1), the entry reads TNF reporter robust z-score -1.02.
Against OGFRL1 (opioid growth factor receptor like 1), the values are TNF reporter robust z-score 0.14.
With knock-down of OGFRL1 (opioid growth factor receptor like 1), the screen gave TNF reporter robust z-score -0.61.
For OGFRL1 (opioid growth factor receptor like 1), the values are TNF reporter robust z-score -0.78.
After knock-down of OGFRL1 (opioid growth factor receptor like 1), the screen gave TNF reporter robust z-score 0.37.
With knock-down of PFKFB2 (6-phosphofructo-2-kinase/fructose-2,6-biphosphatase 2), the screen gave TNF reporter robust z-score 0.17.
After knock-down of PFKFB2 (6-phosphofructo-2-kinase/fructose-2,6-biphosphatase 2), the record shows TNF reporter robust z-score 0.53.
After knock-down of PFKFB2 (6-phosphofructo-2-kinase/fructose-2,6-biphosphatase 2) the results were TNF reporter robust z-score 0.44.
For PFKFB2 (6-phosphofructo-2-kinase/fructose-2,6-biphosphatase 2), the values are TNF reporter robust z-score 0.91.
After knock-down of LILRB3 (leukocyte immunoglobulin like receptor B3), the record shows TNF reporter robust z-score 2.23.
LILRB3 (leukocyte immunoglobulin like receptor B3) showed TNF reporter robust z-score 1.35.
With knock-down of LILRB3 (leukocyte immunoglobulin like receptor B3) the results were TNF reporter robust z-score -0.07.
LILRB3 (leukocyte immunoglobulin like receptor B3) gave TNF reporter robust z-score -0.04.
ANKFN1 (ankyrin repeat and fibronectin type III domain containing 1) scored TNF reporter robust z-score 0.91.
Silencing of ANKFN1 (ankyrin repeat and fibronectin type III domain containing 1) gave: TNF reporter robust z-score 0.96.
With knock-down of ANKFN1 (ankyrin repeat and fibronectin type III domain containing 1), the record shows TNF reporter robust z-score -0.31.
Against ANKFN1 (ankyrin repeat and fibronectin type III domain containing 1), the values are TNF reporter robust z-score 0.98.
For TMEM232 (transmembrane protein 232), the values are TNF reporter robust z-score -0.7.
Silencing of TMEM232 (transmembrane protein 232) came out at: TNF reporter robust z-score -1.18.
After knock-down of TMEM232 (transmembrane protein 232), the screen gave TNF reporter robust z-score -0.08.
After knock-down of TMEM232 (transmembrane protein 232), the screen gave TNF reporter robust z-score 0.35.
For TMEM38A (transmembrane protein 38A), the entry reads TNF reporter robust z-score 0.
TMEM38A (transmembrane protein 38A) scored TNF reporter robust z-score -0.13.
TMEM38A (transmembrane protein 38A) showed TNF reporter robust z-score 0.06.
With knock-down of TMEM38A (transmembrane protein 38A), the record shows TNF reporter robust z-score 0.97.
DCXR (dicarbonyl and L-xylulose reductase) showed TNF reporter robust z-score 1.63.
DCXR (dicarbonyl and L-xylulose reductase) gave TNF reporter robust z-score 0.7.
With knock-down of DCXR (dicarbonyl and L-xylulose reductase), the screen gave TNF reporter robust z-score 1.03.
After knock-down of DCXR (dicarbonyl and L-xylulose reductase) the results were TNF reporter robust z-score 1.2.

Reagents above marked active, once more:
THOC1 (THO complex subunit 1) | TNF reporter robust z-score = -1.74 (active)
